Measured values: PMC3608585
Results are given in words; binding and its absence hold for the method and conditions named. In cells and extracts the contact can be indirect. Some entries that bind do so weakly or less than the wild type.

Target: T1, Id1 (endogenous, MDA-MB435S and A375P cells) (human (endogenous in MDA-MB435S and A375P)) (UniProt P41134)
T1 sequence: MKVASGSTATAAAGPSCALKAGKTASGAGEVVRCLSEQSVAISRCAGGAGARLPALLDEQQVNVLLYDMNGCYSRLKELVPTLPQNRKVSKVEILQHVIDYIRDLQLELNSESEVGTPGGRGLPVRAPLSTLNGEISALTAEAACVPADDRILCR
Experiment: co-IP; extracts of MDA-MB435S and A375P cells immunoprecipitated with anti-Id1 antibodies or control IgGs, Western blot with anti-Id1 and anti-E2A antibodies

B1: E47 (endogenous, MDA-MB435S and A375P cells) (protein, UniProt P15923-2 1-651)
chain: MNQPQRMAPVGTDKELSDLLDFSMMFPLPVTNGKGRPASLAGAQFGGSGLEDRPSSGSWGSGDQSSSSFDPSRTFSEGTHFTESHSSLSSSTFLGPGLGGKSGERGAYASFGRDAGVGGLTQAGFLSGELALNSPGPLSPSGMKGTSQYYPSYSGSSRRRAADGSLDTQPKKVRKVPPGLPSSVYPPSSGEDYGRDATAYPSAKTPSSTYPAPFYVADGSLHPSAELWSPPGQAGFGPMLGGGSSPLPLPPGSGPVGSSGSSSTFGGLHQHERMGYQLHGAEVNGGLPSASSFSSAPGATYGGVSSHTPPVSGADSLLGSRGTTAGSSGDALGKALASIYSPDHSSNNFSSSPSTPVGSPQGLAGTSQWPRAGAPGALSPSYDGGLHGLQSKIEDHLDEAIHVLRSHAVGTAGDMHTLLPGHGALASGFTGPMSLGGRHAGLVGGSHPEDGLAGSTSLMHNHAALPSQPGTLPDLSRPPDSYSGLGRAGATAAASEIKREEKEDEENTSAADHSEEEKKELKAPRARTSSTDEVLSLEEKDLRDRERRMANNARERVRVRDINEAFRELGRMCQMHLKSDKAQTKLLILQQAVQVILGLEQQVRERNLNPKAACLKRREEEKVSGVVGDPQMVLSAPHPGLSEAHNPAGHM
binding: binds
